Experimental data taken from paper doi:10.1101/789222.
Substitutions are numbered along the chain they refer to. No constants are given. Whether binding was seen depends on the method and setting. In cells and extracts the contact can be indirect. Binding can be weak; no strength is given. For part of these data: Sequences can lack the tags named with a protein.

Assays:
Assay in all cases: co-IP
MYC-PER2^K736R (human) = target: T1, MYC-PER2^K736R (human) (UniProt O15055)
T1 sequence: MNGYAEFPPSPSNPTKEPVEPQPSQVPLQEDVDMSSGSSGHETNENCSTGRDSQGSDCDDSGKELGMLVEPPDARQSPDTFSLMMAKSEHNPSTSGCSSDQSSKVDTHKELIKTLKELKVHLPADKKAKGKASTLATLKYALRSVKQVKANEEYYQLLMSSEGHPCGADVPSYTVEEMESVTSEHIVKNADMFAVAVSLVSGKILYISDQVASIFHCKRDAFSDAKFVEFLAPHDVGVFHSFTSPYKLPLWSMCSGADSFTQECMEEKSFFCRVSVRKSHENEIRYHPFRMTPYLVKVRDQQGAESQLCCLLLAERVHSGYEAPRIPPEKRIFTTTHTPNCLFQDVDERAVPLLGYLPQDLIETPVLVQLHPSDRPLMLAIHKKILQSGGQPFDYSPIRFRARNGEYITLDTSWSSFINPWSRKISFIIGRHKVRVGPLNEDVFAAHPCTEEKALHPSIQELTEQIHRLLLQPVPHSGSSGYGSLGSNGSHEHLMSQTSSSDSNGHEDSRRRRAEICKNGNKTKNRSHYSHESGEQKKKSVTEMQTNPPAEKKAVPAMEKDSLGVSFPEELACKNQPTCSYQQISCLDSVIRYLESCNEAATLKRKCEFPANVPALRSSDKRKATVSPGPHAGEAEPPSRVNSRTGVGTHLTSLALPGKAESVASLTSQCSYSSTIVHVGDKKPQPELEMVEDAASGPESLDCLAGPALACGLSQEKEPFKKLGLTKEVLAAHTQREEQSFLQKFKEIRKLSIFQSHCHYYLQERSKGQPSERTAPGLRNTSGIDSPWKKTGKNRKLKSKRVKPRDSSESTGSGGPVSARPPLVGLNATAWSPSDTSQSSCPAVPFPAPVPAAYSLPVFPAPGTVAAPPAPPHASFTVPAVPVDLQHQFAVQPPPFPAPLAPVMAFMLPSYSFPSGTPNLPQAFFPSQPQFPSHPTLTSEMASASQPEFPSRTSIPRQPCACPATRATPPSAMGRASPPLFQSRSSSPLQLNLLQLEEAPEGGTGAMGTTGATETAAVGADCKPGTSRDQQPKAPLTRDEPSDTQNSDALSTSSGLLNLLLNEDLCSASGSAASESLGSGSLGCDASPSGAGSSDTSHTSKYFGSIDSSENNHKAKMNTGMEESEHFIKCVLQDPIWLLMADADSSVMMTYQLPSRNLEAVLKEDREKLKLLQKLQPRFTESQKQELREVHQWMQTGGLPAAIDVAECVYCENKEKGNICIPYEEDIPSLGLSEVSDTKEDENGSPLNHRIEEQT

MYC-PER2^WT (human) = target: T2, MYC-PER2^WT (human) (UniProt O15055)
T2 sequence: T1 sequence with R736K

[1] = target: T3, Period2 (PER2), endogenous (human (endogenous in U2OS)) (UniProt O15055)
T3 sequence: T1 sequence with R736K

Measured: binding

β-TrCP, endogenous (human (endogenous in U2OS and HEK-293T))
binds: all assays above
